Measured values: paper PMC5662751, “Post-transcriptional gene silencing mediated by microRNAs is controlled by nucleoplasmic Sfpq”
Results are given in words; binding and its absence hold for the method and conditions named. Binding seen in cells or lysates may run through a third protein. Some results given as binding are weak or reduced against the parent protein; the word gives no strength.

T1: Splicing factor proline/glutamine-rich protein (Sfpq), mouse, endogenous (mouse (endogenous in RAW 264.7 and P19)) (UniProt Q8VIJ6)
T1 sequence: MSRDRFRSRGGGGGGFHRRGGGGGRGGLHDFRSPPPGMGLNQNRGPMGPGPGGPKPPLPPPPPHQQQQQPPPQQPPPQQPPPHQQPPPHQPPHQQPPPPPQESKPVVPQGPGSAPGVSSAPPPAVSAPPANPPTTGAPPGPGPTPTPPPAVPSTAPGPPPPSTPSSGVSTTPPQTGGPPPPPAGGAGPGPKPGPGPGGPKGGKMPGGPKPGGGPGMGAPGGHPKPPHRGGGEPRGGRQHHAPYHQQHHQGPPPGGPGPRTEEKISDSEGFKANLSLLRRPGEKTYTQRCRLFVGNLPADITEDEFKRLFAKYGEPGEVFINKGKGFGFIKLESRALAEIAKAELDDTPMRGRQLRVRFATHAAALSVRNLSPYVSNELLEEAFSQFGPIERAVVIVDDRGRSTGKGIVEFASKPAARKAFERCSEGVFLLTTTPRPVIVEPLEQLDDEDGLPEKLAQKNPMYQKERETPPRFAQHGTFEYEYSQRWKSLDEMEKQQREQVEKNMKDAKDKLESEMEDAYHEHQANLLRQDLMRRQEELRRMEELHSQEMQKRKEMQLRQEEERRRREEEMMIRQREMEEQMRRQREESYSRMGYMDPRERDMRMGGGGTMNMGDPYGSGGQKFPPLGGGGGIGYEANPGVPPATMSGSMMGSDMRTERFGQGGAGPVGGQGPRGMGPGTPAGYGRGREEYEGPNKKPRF

T2: Splicing factor proline/glutamine-rich protein (Sfpq), human, endogenous (human (endogenous in HEK293T)) (UniProt P23246)
T2 sequence: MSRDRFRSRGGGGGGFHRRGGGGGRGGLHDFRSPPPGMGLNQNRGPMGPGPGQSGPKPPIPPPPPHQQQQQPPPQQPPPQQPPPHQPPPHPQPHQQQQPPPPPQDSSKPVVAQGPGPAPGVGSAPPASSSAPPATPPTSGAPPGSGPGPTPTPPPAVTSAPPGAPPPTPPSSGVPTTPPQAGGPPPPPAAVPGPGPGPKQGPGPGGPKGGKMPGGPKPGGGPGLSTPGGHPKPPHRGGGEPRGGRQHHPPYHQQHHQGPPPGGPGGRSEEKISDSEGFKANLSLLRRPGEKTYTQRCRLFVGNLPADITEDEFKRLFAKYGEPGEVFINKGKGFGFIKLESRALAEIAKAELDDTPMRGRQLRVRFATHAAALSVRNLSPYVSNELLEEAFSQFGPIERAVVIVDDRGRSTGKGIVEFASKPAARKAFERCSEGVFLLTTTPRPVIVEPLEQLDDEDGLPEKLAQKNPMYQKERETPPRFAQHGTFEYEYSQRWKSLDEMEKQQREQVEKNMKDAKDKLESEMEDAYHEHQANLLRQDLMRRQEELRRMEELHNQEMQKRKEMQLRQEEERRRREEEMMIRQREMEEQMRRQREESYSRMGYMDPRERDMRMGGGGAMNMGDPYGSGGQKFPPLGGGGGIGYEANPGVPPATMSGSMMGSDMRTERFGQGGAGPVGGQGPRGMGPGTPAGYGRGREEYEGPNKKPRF


Columns and labels:
[1] = molecular target: T1, Splicing factor proline/glutamine-rich protein (Sfpq), mouse, endogenous (mouse (endogenous in RAW 264.7 and P19)); assay: co-IP; endogenous proteins from whole-cell lysates of RAW 264.7, P19 and HEK293T cells; Protein G-Dynabeads-coupled antibodies, 16 h, 4 °C; where indicated RNase A 10 mg/ml for 30 min; cells also transfected with siRNAs against Sfpq, Pspc1 or NonO
[2] = molecular target: T2, Splicing factor proline/glutamine-rich protein (Sfpq), human, endogenous (human (endogenous in HEK293T)); assay: as above

Row | binding [1] | binding [2] | Binder
1 | binds |  | Non-POU Domain Containing, Octamer-Binding (NonO), mouse, endogenous (protein, UniProt Q99K48 1-473) MQSNKAFNLEKQNHTPRKHHQHHHQQHHQQQQQQQQQQPPPPIPANGQQASSQNEGLTIDLKNFRKPGEKTFTQRSRLFVGNLPPDITEEEMRKLFEKYGKAGEVFIHKDKGFGFIRLETRTLAEIAKVELDNMPLRGKQLRVRFACHSASLTVRNLPQYVSNELLEEAFSVFGQVERAVVIVDDRGRPSGKGIVEFSGKPAARKALDRCSEGSFLLTTFPRPVTVEPMDQLDDEEGLPEKLVIKNQQFHKEREQPPRFAQPGSFEYEYAMRWKALIEMEKQQQDQVDRNIKEAREKLEMEMEAARHEHQVMLMRQDLMRRQEELRRMEELHNQEVQKRKQLELRQEEERRRREEEMRRQQEEMMRRQQEGFKGTFPDAREQEIRMGQMAMGGAMGINNRGAMPPAPVPPGTPAPPGPATMMPDGTLGLTPPTTERFGQAATMEGIGAIGGTPPAFNRPAPGAEFAPNKRRRY
2 | binds |  | Paraspeckle Component 1 (Pspc1), mouse, endogenous (protein, UniProt Q8R326 1-523) MMLRGNLKQVRIEKNPARLRALESAAGESEPVAAAAMALTLAGEQAPPPAPSEEHPDEELGFTIDIKSFLKPGEKTYTQRCRLFVGNLPTDITEEDFKRLFERYGEPSEVFINRDRGFGFIRLESRTLAEIAKAELDGTILKSRPLRIRFATHGAALTVKNLSPVVSNELLEQAFSQFGPVEKAVVVVDDRGRATGKGFVEFAAKPPARKALERCGDGAFLLTTTPRPVIVEPMEQFDDEDGLPEKLMQKTQQYHKEREQPPRFAQPGTFEFEYASRWKALDEMEKQQREQVDRNIREAKEKLEAEMEAARHEHQLMLMRQDLMRRQEELRRLEELRNQELQKRKQIQLRHEEEHRRREEEMIRHREQEELRRQQEGGFKPNYMENREQEMRMGDMGPRGAINMGDAFSPAPAGTQGPPPMMGMNMNNRGTIPGPPMGPGPAMGPEGAANMGTPMIPDNGAVHNDRFPQGPPSQMGSPMGNRTGSETPQAPMSGVGPVSGGPGGFGRGSQGGNFEGPNKRRRY
3 |  | binds | Paraspeckle Component 1 (Pspc1), human, endogenous (protein, UniProt Q8WXF1 1-523) MMLRGNLKQVRIEKNPARLRALESAVGESEPAAAAAMALALAGEPAPPAPAPPEDHPDEEMGFTIDIKSFLKPGEKTYTQRCRLFVGNLPTDITEEDFKRLFERYGEPSEVFINRDRGFGFIRLESRTLAEIAKAELDGTILKSRPLRIRFATHGAALTVKNLSPVVSNELLEQAFSQFGPVEKAVVVVDDRGRATGKGFVEFAAKPPARKALERCGDGAFLLTTTPRPVIVEPMEQFDDEDGLPEKLMQKTQQYHKEREQPPRFAQPGTFEFEYASRWKALDEMEKQQREQVDRNIREAKEKLEAEMEAARHEHQLMLMRQDLMRRQEELRRLEELRNQELQKRKQIQLRHEEEHRRREEEMIRHREQEELRRQQEGFKPNYMENREQEMRMGDMGPRGAINMGDAFSPAPAGNQGPPPMMGMNMNNRATIPGPPMGPGPAMGPEGAANMGTPMMPDNGAVHNDRFPQGPPSQMGSPMGSRTGSETPQAPMSGVGPVSGGPGGFGRGSQGGNFEGPNKRRRY
